Assay results from patent US9702869B2, “Assays, antibodies, immunogens and compositions related to 5-FU” (WELLSTAT DIAGNOSTICS, LLC, priority 2011, dated 2017).
For part of these data: For at least one compound, name, drawing or mass did not settle the structure. Some of these results come from one statement about several compounds together.

Legend:
antibody 61C6 = assay: 5-FU ECL assay with antibody 61C6, summary of cross-reactivity; type: binding, Balb/c mouse; conditions: 5-FU assay with antibody 61C6
Description: The capture reagent 1-5C-5-FU-M270 beads appeared to be stable at 2-8° C. for at least 40 hours. […] The functional sensitivity was determined to be approximately 10 ng/mL (which is an estimate of functional sensitivity based on the calibrator curve).

mAb 61C6 = assay: Competitive ECL cross-reactivity test in human plasma with and without 5-FU; conditions: Table 5
[1] = Reagent and analyte stability (summary of assay parameters); type: physicochemical; conditions: on ice
monoclonal antibody 61C6 = assay: Cross-reactivity evaluation with lyophilized reagents (Bi-mAb-Beads capture, TAG Plus 1-5C-5-FU-BSA detector); type: binding, Balb/c mouse
Description: This experiment was performed to test the specificity of the monoclonal antibody 61C6 against 5-FU analogues, pro-drugs and interference reagents. […] In this Example, the components of 5-FU assay (capture, detector) were lyophilized and the sample (calibrator, controls, and spiked plasma samples) were added directly to the lyophilized reagent pellets.
The assay was prepared using the following protocol. […] The capture and the detector solutions were aliquoted (20 μL) and lyophilized.
The assay procedure was as follows. The electrostatic on the surface of the microplate was reduced by using a Zerostat Antistatic Device prior to use. The device was pointed on the surface of the microplate, squeezed and the trigger released a few times across the microplate. 1 lyophilized pellet of each capture and detector reagent was transferred into plate wells using the Vacuum Pick-Up System. A hollow needle tip was attached onto the pick-up pen, and the finger controlled vacuum was used for picking up (the index finger was placed over the hole so that vacuum was drawn through the needle) or releasing pellet (lifting the index finger off of the hole). On a metal plate holder of a Digital Heat Block set at 37±2° C., 50 μL of each calibrator, control, and sample (in this case cross-reactivity panels) were added in duplicate directly into plate wells containing 2 lyophilized pellets. The plate was placed on the Micromix shaker set at Form 8 & Amp 6 for 30 seconds to mix. The plate was then placed in the metal plate holder of a Digital Heat Block set at 37±2° C. The plate was covered with a plate cover and incubated for 5±0.5 minutes.

SMILES	cross-reactivity (antibody 61C6)	further results
Cc1cn([C@H]2C[C@H](O)[C@@H](CO)O2)c(=O)[nH]c1=O [Thymidine]	less than 3.0%	cross-reactivity (mAb 61C6): less than 1.0%
CCc1c2c(nc3ccc(OC(=O)N4CCC(N5CCCCC5)CC4)cc13)-c1cc3c(c(=O)n1C2)COC(=O)[C@]3(O)CC [Irinotecan]	less than 3.0%	
O=c1[nH]cc(F)c(=O)[nH]1 [5-FU, 5-Fluorouracil]		stability ([1]; in Antibody Screen Buffer): at least 4 hours; stability ([1]; in Human Li-Heparin Plasma): at least 4 hours
C#Cc1c[nH]c(=O)[nH]c1=O [5-ethynyluracil]	less than 3.0%	
Cc1c[nH]c(=O)[nH]c1=O [Thymine]	less than 3.0%	cross-reactivity (mAb 61C6): less than 1.0%
C=CC1=C(C)/C(=C/c2[nH]c(Cc3[nH]c(/C=C4\NC(=O)C(C)=C4C=C)c(C)c3CCC(=O)O)c(CCC(=O)O)c2C)NC1=O [Bilirubin]		% Cross-React (monoclonal antibody 61C6; With 75 ng/mL Spiked 5-FU): 0.0%; % Cross-React (monoclonal antibody 61C6; With 1000 ng/mL Spiked 5-FU): 0.0%; % Cross-React (monoclonal antibody 61C6; Without 5-FU, lyophilized reagents, human plasma): 0.0%
Nc1nc(=O)c2c([nH]1)NCC(CNc1ccc(C(=O)N[C@@H](CCC(=O)O)C(=O)O)cc1)N2C=O (mixture of isomers) [Folinic Acid]	less than 3.0%	
CCCCCOC(=O)Nc1nc(=O)n([C@@H]2O[C@H](C)[C@@H](O)[C@H]2O)cc1F [Capecitabine]	less than 3.0%	
CN(Cc1cnc2nc(N)nc(N)c2n1)c1ccc(C(=O)N[C@@H](CCC(=O)O)C(=O)O)cc1 [Methotrexate]	less than 3.0%	
O=c1ccn([C@@H]2O[C@H](CO)[C@@H](O)[C@H]2O)c(=O)[nH]1 [Uridine]	less than 3.0%	cross-reactivity (mAb 61C6): less than 1.0%
O=c1cc[nH]c(=O)[nH]1 [Uracil]	less than 3.0%	
O=C1NCC(F)C(=O)N1 (stereo not drawn) [DH5FU, 5-Fluorodihydropyrimidine-2,4-dione]	less than 3.0%	
